The source of these data is PubChem BioAssay AID248 (DTP/NCI, 2004).

This experiment deals with L1210 leukemia ip in BDF1 mice, survival T/C. In words: NCI In Vivo Anticancer Drug Screen. Data for tumor model L1210 Leukemia (intraperitoneal) in B6D2F1 (BDF1) mice. To be noted: T/C endpoint: mean survival time, higher T/C = longer survival.
The mark [1] stands for this setting: dose: 100.0 mg/kg/injection, schedule: Q04DX003 (ip), vehicle: saline with Tween-80.
Setting [2] is: dose: 200.0 mg/kg/injection, schedule: Q04DX003 (ip), vehicle: saline with Tween-80.
The mark [3] stands for this setting: dose: 400.0 mg/kg/injection, schedule: Q04DX003 (ip), vehicle: saline with Tween-80.
[4] abbreviates: dose: 50.0 mg/kg/injection, schedule: Q01DX009 (ip), vehicle: saline.
Where [5] appears, read: dose: 200.0 mg/kg/injection, schedule: Q01DX001 (ip), vehicle: saline.
Where [6] appears, read: dose: 200.0 mg/kg/injection, schedule: Q04DX003 (ip), vehicle: saline.
[7] abbreviates: dose: 400.0 mg/kg/injection, schedule: Q04DX003 (ip), vehicle: saline.
Setting [8] is: dose: 400.0 mg/kg/injection, schedule: Q01DX001 (ip), vehicle: saline.
Setting [9] is: dose: 400.0 mg/kg/injection, schedule: Q01DX009 (ip), vehicle: saline with Tween-80.
Setting [10] is: dose: 50.0 mg/kg/injection, schedule: Q01DX009 (ip), vehicle: Klucel (hydroxypropylcellulose) (HPC).
[11] abbreviates: dose: 100.0 mg/kg/injection, schedule: Q01DX009 (ip), vehicle: Klucel (hydroxypropylcellulose) (HPC).

The list does not hold the whole screen: it gathers tests that were run many times, whatever their T/C, doses with no T/C, and many T/C values between a quarter and a half above the control. Other doses and runs of a compound stand elsewhere. T/C gives the treated animals as a percentage of the vehicle group. Some doses have a count of surviving animals in place of a T/C: the source holds a T/C of zero for them, seemingly a mark for toxic or unscored doses. Some doses without a T/C left all or most animals alive at the check, yet need not have been tolerated: the source hardly ever lists a survival T/C far under the control, and the zero likely stands for such cases as well. Survivors were counted at the toxicity check, usually on the fifth day, unless a day is given; later deaths do not show. Schedules are NCI's codes, taken here to give the interval after Q, in days (D) or hours (H), and the number of doses after X. Some entries hold several experiments; the results are listed from low to high. Some schedule codes hold Z or #, which are not explained here. For survival time, this PubChem deposit counts one and a half times the control or more as active, and values a quarter to a half above the control carry no call in these data; other NCI protocols may use other cut-offs.

On to `CC(=O)NC1CC2CCCN3CCCC(C1)C23` (configuration not stated), for which the survivor count is on record as 3 of 6 under setting [1], 0 of 6 under setting [2] and 0 of 6 under setting [3].

As to `CC1=COC(C)(C2NC(C)CC(C)(C)N2)CC1` (configuration not stated), the survivor count (dose: 66.0 mg/kg/injection, schedule: Q01DX Z (ip), vehicle: methylcellulose (MC)) is given as 3 of 6.

As for `C[N+](C)(C)N=C1CCC2(CC1)c1ccccc1-c1ccccc12`, the survivor count was 1 of 6 under setting [4], 3 of 6 under setting [1], 0 of 6 under setting [2] and 0 of 6 under setting [3].

Take `CC1CN=C(c2ccc(NC(=O)Nc3ccc(C4=NCC(C)N4)cc3)cc2)N1` (configuration not stated): the survivor count by setting is: (dose: 4.4 mg/kg/injection, schedule: Q01DX Z (ip), vehicle: saline) 6 of 6; (dose: 6.6 mg/kg/injection, schedule: Q01DX Z (ip), vehicle: saline) 2 of 6; (dose: 10.0 mg/kg/injection, schedule: Q01DX Z (ip), vehicle: saline) 0 of 6; (dose: 15.0 mg/kg/injection, schedule: Q01DX Z (ip), vehicle: saline) 0 of 6.

As to `OC1(Cc2nccc3ccccc23)CCN(Cc2ccccc2)CC1`, the survivor count (dose: 400.0 mg/kg/injection, schedule: Q04DX003 (ip), vehicle: carboxymethylcellulose (CMC)) is on record as 0 of 6.

Consider `OCc1ccn2c1[C@@H](O)CC2`, for which the T/C is, setting by setting: (dose: 25.0 mg/kg/injection, schedule: Q01DX009 (ip), vehicle: saline) 143 % of control; (dose: 50.0 mg/kg/injection, schedule: Q01DX009 (ip), vehicle: acetone) 147 % of control; under setting [4], 140 % of control; (dose: 100.0 mg/kg/injection, schedule: Q01DX001 (ip), vehicle: saline, evaluated on day 30) 129 % of control; (dose: 100.0 mg/kg/injection, schedule: Q01DX001 (ip), vehicle: saline, run until all animals had died) 133 % of control; (dose: 100.0 mg/kg/injection, schedule: Q01DX009 (ip), vehicle: acetone) 143 % of control. Under setting [5], the T/C was 139 % of control. Besides, the survivor count by setting is: (dose: 150.0 mg/kg/injection, schedule: Q01DX009 (ip), vehicle: saline) 6 of 6; (dose: 200.0 mg/kg/injection, schedule: Q01DX009 (ip), vehicle: saline) 4 of 6 and 6 of 6; (dose: 225.0 mg/kg/injection, schedule: Q01DX009 (ip), vehicle: saline) 4 of 6; (dose: 335.0 mg/kg/injection, schedule: Q01DX009 (ip), vehicle: saline) 2 of 6.

As to `CC(=O)Nc1ccc(/C=N\NC(=O)N/N=C/c2ccc(NC(C)=O)cc2)cc1`, the survivor count (dose: 200.0 mg/kg/injection, schedule: Q04DX003 (ip), vehicle: Klucel (hydroxypropylcellulose) (HPC)) was 6 of 6.

Regarding `CCCCCCOC(=O)C[n+]1cccc(C(N)=O)c1`, the survivor count is reported as 6 of 6 under setting [6] and 1 of 6 under setting [7].

Consider `O=[N+]([O-])c1ccc(/C=N\Nc2ccccn2)s1`, for which, under setting [3], the survivor count was 3 of 6.

Turning to `CC1(C)N=C(N)N=C(N)N1c1ccc(C#N)cc1`, the survivor count by setting is: under setting [5], 0 of 6; under setting [8], 0 of 6.

For the compound `COc1cccc2c1C(=O)c1c(O)c3c(c(O)c1C2=O)C[C@@](O)(C(=O)COC(=O)Cc1cccc2ccccc12)C[C@@H]3OC1CC(N)C(O)C(C)O1` (some centres not stated), the survivor count (dose: 0.25 mg/kg/injection, schedule: Q04DX003 (ip), vehicle: water) is listed as 6 of 6; the survivor count (dose: 0.5 mg/kg/injection, schedule: Q04DX003 (ip), vehicle: water) is 6 of 6; the survivor count (dose: 1.0 mg/kg/injection, schedule: Q04DX003 (ip), vehicle: water) is 6 of 6; the survivor count (dose: 2.0 mg/kg/injection, schedule: Q04DX003 (ip), vehicle: water) is 6 of 6; the survivor count (dose: 4.0 mg/kg/injection, schedule: Q04DX003 (ip), vehicle: water) was 6 of 6; the survivor count (dose: 8.0 mg/kg/injection, schedule: Q04DX003 (ip), vehicle: water) was 6 of 6. Also, the survivor count (dose: 16.0 mg/kg/injection, schedule: Q04DX003 (ip), vehicle: water) is 6 of 6.

In the case of `NNC(=O)c1ccccc1O`, the survivor count (dose: 400.0 mg/kg/injection, schedule: Q01DX001 (ip), vehicle: other) is reported as 0 of 4.

With `CSC(=O)SC`, the survivor count reads like this: (dose: 200.0 mg/kg/injection, schedule: Q01DX009 (ip), vehicle: saline with Tween-80) 0 of 6; under setting [9], 0 of 6.

Consider `COC(=O)c1ccc(OC(=O)Nc2ccccc2[N+](=O)[O-])cc1`, for which the survivor count reads like this: under setting [9], 5 of 6 and 3 of 3; (dose: 400.0 mg/kg/injection, schedule: Q04DX002 (ip), vehicle: saline with Tween-80) 2 of 3.

For `c1ccc(C2OCCCO2)cc1`, the survivor count is recorded as 4 of 4 under setting [10]; 6 of 6 under setting [11]; 6 of 6 (dose: 200.0 mg/kg/injection, schedule: Q01DX009 (ip), vehicle: Klucel (hydroxypropylcellulose) (HPC)).

`CC1CCC(C)C([N+](C)(C)C)C1` (configuration not stated): the survivor count reads like this: (dose: 100.0 mg/kg/injection, schedule: Q01DX001 (ip), vehicle: saline) 1 of 6; (dose: 115.0 mg/kg/injection, schedule: Q04DX003 (ip), vehicle: saline) 4 of 6; under setting [5], 0 of 6; under setting [8], 0 of 6.

Consider `CCOC(=O)C(C#N)N=O` (configuration not stated), for which the survivor count (dose: 100.0 mg/kg/injection, schedule: Q04DX003 (ip), vehicle: saline) is given as 3 of 6 and the survivor count under setting [6] is on record as 1 of 6.

Regarding `O/N=C(\Cl)c1ccc(/C(Cl)=N\O)cc1`, the survivor count reads like this: (dose: 40.0 mg/kg/injection, schedule: Q01DX001 (ip), vehicle: saline) 2 of 4; (dose: 80.0 mg/kg/injection, schedule: Q01DX001 (ip), vehicle: saline) 1 of 4.

On to `CNC(=S)N/N=C\C=N/NC(=S)NC`, for which the survivor count is listed as 0 of 6 (dose: 1.0 micrograms/kg/injection, schedule: Q01DX009 (ip), vehicle: carboxymethylcellulose (CMC)); 0 of 6 (dose: 5.0 micrograms/kg/injection, schedule: Q01DX009 (ip), vehicle: carboxymethylcellulose (CMC)); 0 of 6 (dose: 10.0 micrograms/kg/injection, schedule: Q01DX009 (ip), vehicle: carboxymethylcellulose (CMC)); 0 of 6 (dose: 50.0 micrograms/kg/injection, schedule: Q01DX009 (ip), vehicle: carboxymethylcellulose (CMC)).

Turning to `c1ccc2c(c1)CC(=[N+]1CCCCC1)Cc1ccccc1-2`, the survivor count (dose: 400.0 mg/kg/injection, schedule: Q01DX009 (ip), vehicle: saline) was 6 of 6.

Turning to `COC(=O)N/N=C/c1ccc(Cl)cc1Cl`, the survivor count runs as follows: under setting [10], 2 of 6; under setting [11], 0 of 6; (dose: 100.0 mg/kg/injection, schedule: Q04DX002 (ip), vehicle: Klucel (hydroxypropylcellulose) (HPC)) 1 of 3; (dose: 200.0 mg/kg/injection, schedule: Q04DX002 (ip), vehicle: Klucel (hydroxypropylcellulose) (HPC)) 0 of 3; (dose: 400.0 mg/kg/injection, schedule: Q04DX002 (ip), vehicle: Klucel (hydroxypropylcellulose) (HPC)) 0 of 3.

On to `c1coc(CNc2cc(NCc3ccco3)ncn2)c1`, for which the survivor count (dose: 400.0 mg/kg/injection, schedule: Q01DX009 (ip), vehicle: Klucel (hydroxypropylcellulose) (HPC)) is 4 of 6.

As for `OCC1CC[N-]CC1.OCC1CC[N-]CC1.[Cl][Pt+2]([Cl])([Cl])[Cl]`, the survivor count was 1 of 6 (dose: 100.0 mg/kg/injection, schedule: Q01DX009 (ip), vehicle: saline); 2 of 6 under setting [6]; 0 of 6 under setting [7].
